Substitutions are numbered along the chain they refer to. In names and notes the source's numbering stands. No constants are given. Whether binding was seen depends on the method and setting. Some results given as binding are weak or reduced against the parent protein; the word gives no strength.

In assay [1] the target is Y88R mutant of the protein S100P (human) (UniProt P25815). Put plainly: cross-linking; 0.7 mg/mL protein with 0.02% glutaric aldehyde, 20 °C, 16 h, then SDS-PAGE with Coomassie staining; pH 7.4, 10 mM tricine-KOH, 1 mM EDTA/CaCl2; data not shown; both purified.
The target of assay [2] is Human S100P protein (wild-type) (human) (UniProt P25815). Described as above.

B1: Y88R mutant of the protein S100P (protein, UniProt P25815 1-94)
chain: MTELETAMGMIIDVFSRYSGSEGSTQTLTKGELKVLMEKELPGFLQSGKDKDAVDKLLKDLDANGDAQVDFSEFIVFVAAITSACHKRFEKAGL
As for B1, the binding result in assay [1] is given as “binds”.

B2: Human S100P protein (wild-type) (protein, UniProt P25815 1-94)
chain: B1 chain with R88Y
Regarding B2, the binding entry in assay [2] was “binds”.

Source of the values: PMC8773746.
